{"source": "PubChem BioAssay AID662", "about": "(National Center for Advancing Translational Sciences (NCATS), 2007)", "note": "The list shows a part of the results. Shown are side measurements of this screen, not its main read-out; they come without a call. The list favours compounds with an active or inconclusive main result. The note in brackets gives the kind of curve behind each potency; many fits are weak.", "data": [{"experiment": "Cell signaling CRE-BLA (Fsk stim)", "settings": "CHO CRE-bla reporter (cAMP response element driving beta-lactamase), forskolin EC10, beta-lactamase ratio; measured here: 460 nm blue channel", "summary_of_the_method": "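Cells were plated overnight at 37 °C, exposed to compound titrations plus EC10 NKH 477 for 3 h, then given CCF4 dye for 2 h at room temperature. Blue/green (460/530 nm) ratio was converted to %Activity and AC50 values calculated.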", "values": [{"smiles": "CCOC(=O)c1ccc(-c2c(C(=O)OCC)oc3cc(O)c(CC)cc3c2=O)o1", "AC50": "31.6 µM [falling, single point]"}, {"smiles": "COCCCN1C(=O)c2[nH]nc(-c3cc(C)cc(C)c3O)c2C1c1ccc(O)c(OC)c1", "note": "(centres undefined)", "AC50": "10 µM [rising, partial curve]"}, {"smiles": "N#Cc1nc(-c2ccccc2Cl)oc1N1CCOCC1", "AC50": "12.6 µM [rising, single point]"}, {"smiles": "CCOC(=O)c1c(C)[nH]c2cc(Br)c(OC)cc12", "AC50": "10 µM [rising, partial curve]"}, {"smiles": "COc1ccc(C(=O)NCCn2cc(SCC(=O)NCc3ccco3)c3ccccc32)cc1", "AC50": "0.398 µM [falling, full curve, poor fit]"}, {"smiles": "Cc1ccc(-c2ccc(/C=N/n3cnnc3)o2)cc1Cl", "AC50": "15.8 µM [rising, partial curve]"}, {"smiles": "Cc1ccc(NC(=O)c2cccc(OCc3c(C)noc3C)c2)c(C)c1", "AC50": "0.794 µM [falling, partial curve]"}, {"smiles": "Cc1ccccc1C(=O)OCn1nnc2ccccc2c1=O", "AC50": "12.6 µM [rising, partial curve]"}, {"smiles": "CCOC(=O)c1nn(-c2ccc3c(c2)CCN3C(C)=O)cc1O", "AC50": "10 µM [rising, single point]"}, {"smiles": "COc1cccc2[nH]c3c(N4CCC(C)CC4)ncnc3c12", "AC50": "10 µM [rising, single point]"}, {"smiles": "Cc1cc(C)n2nc3nc(N4CCCC4)nc(-c4ccccc4)c3c2n1", "AC50": "7.94 µM [rising, partial curve]"}, {"smiles": "CCCCn1c(NC(C)=O)c(C#N)c2nc3ccccc3nc21", "AC50": "12.6 µM [rising, partial curve]"}, {"smiles": "N#Cc1nc(-c2ccco2)oc1N1CCN(c2cccc(Cl)c2)CC1", "AC50": "1.58 µM [rising, partial curve]"}, {"smiles": "CC(Sc1nc(N(C)C)nc(N2CCOCC2)n1)C(=O)Nc1ccccc1", "note": "(centres undefined)", "AC50": "15.8 µM [rising, partial curve]"}, {"smiles": "Cc1ccc2c(c1)c1c3n2CCN[C@H]3CCC1", "AC50": "20 µM [falling, single point]"}, {"smiles": "Cc1ccc(NC(=O)CSc2n[nH]c(-c3ccncc3)n2)cc1C", "AC50": "5.01 µM [falling, single point]"}, {"smiles": "COCCn1c(=O)c(-c2ccc(OC)cc2)nc2cnc(Oc3cccc(Cl)c3)nc21", "AC50": "3.16 µM [rising, partial curve]"}, {"smiles": "CCCSc1ncnc2c1oc1ccccc12", "AC50": "12.6 µM [rising, partial curve]"}, {"smiles": "CC(=O)Nc1ccc(S(=O)(=O)Nc2nc3ccccc3nc2N2CCCC2)cc1", "AC50": "10 µM [rising, partial curve, poor fit]"}, {"smiles": "Cn1c(=O)c(-c2ccc(Cl)cc2)nc2cnc(OCc3ccccc3)nc21", "AC50": "25.1 µM [rising, single point]"}, {"smiles": "CCSc1nc(C)nc2c1oc1ccccc12", "AC50": "10 µM [rising, single point]"}, {"smiles": "COc1cc(OC)c(C2C(C#N)=C(N)OC3=C2C(=O)CC(C)(C)C3)cc1OC", "note": "(centres undefined)", "AC50": "0.158 µM [rising, full curve]"}, {"smiles": "CCOC1(NC(=O)c2ccccc2)C(C)=CC(=O)C=C1C", "AC50": "3.98 µM [falling, partial curve]"}, {"smiles": "COc1cccc(C(=O)N2CCN(Cc3cccc(F)c3)CC2)c1", "AC50": "3.16 µM [falling, single point]"}, {"smiles": "O=C1c2ccncc2C(=O)N1CO", "AC50": "0.126 µM [falling, full curve]"}, {"smiles": "CC(C)C[C@@H](CC(=O)N[C@H](CC(=O)N[C@@H]1CCCC[C@H]1C(=O)N[C@H](CC(=O)N[C@@H](CCC(=O)O)CC(=O)O)Cc1ccccc1)C(C)C)NC(=O)[C@@H]1CNCC[C@H]1N", "AC50": "12.6 µM [falling, partial curve]"}, {"smiles": "Cc1noc(C)c1COC(=O)CCC(=O)c1ccc(F)cc1", "AC50": "5.01 µM [falling, single point]"}, {"smiles": "COCCOC(=O)C1=C(C)NC2=C(C(=O)CCC2)C1c1ccc2c(c1)OCO2", "note": "(centres undefined)", "AC50": "3.16 µM [rising, partial curve, poor fit]"}, {"smiles": "Cc1cc(C)nc(SCC2COc3ccccc3O2)n1", "note": "(centres undefined)", "AC50": "12.6 µM [rising, single point]"}, {"smiles": "CCCn1nc(C(=O)NCCc2ccc(S(N)(=O)=O)cc2)c2ccccc2c1=O", "AC50": "10 µM [rising, partial curve]"}, {"smiles": "CC(C(=O)NC1=NCCS1)N1C(=O)c2ccccc2C1=O", "note": "(centres undefined)", "AC50": "0.00398 µM [falling, full curve, poor fit]"}, {"smiles": "O=C(CSc1ncn(-c2ccccc2)n1)N1CCc2ccccc21", "AC50": "0.316 µM [falling, partial curve, poor fit]"}, {"smiles": "COC(=O)CSc1nnc(CNC(=O)c2ccc(OC)cc2OC)n1C", "AC50": "25.1 µM [rising, single point]"}, {"smiles": "CC(=O)N1CCCc2cc(S(=O)(=O)NC(C(=O)NC(C)c3ccccc3)C(C)C)ccc21", "note": "(centres undefined)", "AC50": "3.16 µM [falling, single point]"}, {"smiles": "CCCc1nc2oc3cc(OC)ccc3c(=O)c2c(=O)n1Cc1ccco1", "AC50": "0.0158 µM [rising, full curve]"}, {"smiles": "Cc1ncc(CO)c(CO)c1O", "AC50": "12.6 µM [falling, single point]"}, {"smiles": "C=CCc1ccccc1OCC(O)CNC", "note": "(centres undefined)", "AC50": "5.01 µM [falling, single point]"}, {"smiles": "CCNc1ncc2nc(-c3ccccc3)c(=O)n(C)c2n1", "AC50": "2 µM [rising, full curve]"}, {"smiles": "Cc1ccn2cc(CCNC(=O)c3ccc(Br)o3)nc2c1", "AC50": "10 µM [rising, partial curve]"}, {"smiles": "COc1ccc(-c2cc(NCCc3ccncc3)n3ncnc3n2)cc1", "AC50": "10 µM [rising, partial curve]"}, {"smiles": "Cc1ccc(C(C(=O)NCc2ccco2)N(Cc2ccco2)C(=O)CNC(=O)c2ccco2)cc1", "note": "(centres undefined)", "AC50": "31.6 µM [falling, single point]"}, {"smiles": "CCOC(=O)c1c(C)[nH]c(C(=O)OCC(=O)Nc2cc(C)ccc2OC)c1C", "AC50": "7.94 µM [rising, partial curve]"}, {"smiles": "CCOc1ccc(CCNS(=O)(=O)c2c(C)n[nH]c2C)cc1OCC", "AC50": "10 µM [rising, partial curve]"}, {"smiles": "c1ccc(Cn2c(CNc3nc4ccccc4n3CCN3CCOCC3)nc3ccccc32)cc1", "AC50": "7.94 µM [falling, partial curve]"}]}]}
